Results reported in US3968233A, “α-Amino-γ-butyrolactones as sedatives” (priority 1975, dated 1976).
Entries after “also recorded” stand apart in the source; their conditions may differ. At least one compound was matched to its structure with a doubt left. Some entries repeat one wording, which the source may state once for all of them.

Legend:
[1] = Enhancement of the hypnotic effect of sodium pentobarbital; type: in vivo, mouse; settings: AP-28 250 and 500 mg/kg i.p.
Protocol: Forty mg/kg of sodium pentobarbital was injected intraperitoneally into mice and note was taken of animals losing the righting reflex and for how long. Other mice received a preliminary treatment with AP-28 at a dosage of 250 and 500 mg/kg, intraperitoneally, and thereafter sodium pentobarbital was given to them.

[2] = Rotating bar test; type: in vivo, mouse
[3] = Influence on amphetamine-induced hypermobility; type: in vivo, mouse; settings: AP-28 250 mg/kg i.p.
Protocol: Six groups of 4 mice each were treated with 5 mg/kg d-amphetamine sulfate by intraperitoneal administration. Six groups of 4 animals each received the same dose of d-amphetamine sulfate plus 250 mg/kg of AP-28 intraperitoneally 15 minutes after d-amphetamine sulfate; six more groups of four animals each received saline solution and served as control animals. […] The number of times each animal crossed the light beam throughout the 10-minute test was noted.

[4] = Protective effect against strychnine (single injection); type: in vivo, mouse; settings: for Time of death in minutes: 30 minutes before strychnine
Protocol: This type of antagonism was evaluated in the mouse in three ways, namely: (1) protection from death from one hypodermic injection of strychnine: (2) evaluation of the LD50 of strychnine in mice both treated and untreated with AP-28, and (3) influence on the time required to cause animals to die by slow intravenous perfusion of strychnine. […] Groups of six mice were used. (2) increasing amounts of strychnine sulfate were injected hypodermically. In two experiments 200 or 400 mg/kg of intraperitoneal AP-28 were given 30 minutes prior to strychnine injection and the LD50 was calculated. The following results were obtained (95-percent confidence limits): […]

[5] = Influence on the electromyogram, electrodes implanted in cerebral cortex; type: in vivo, rabbit; settings: 500 mg/kg i.p.
[6] = Electrode recording with eye movements and neck muscle contractions, unrestrained cat; type: in vivo; settings: 500 or 1000 mg/kg
[7] = Sleep pattern in cats conditioned to sleep for 8 hours; type: in vivo, cat; settings: 250 and 350 mg/kg
[8] = Clinical trial, 1st group: insomnia; type: in vivo, human; settings: 400-600 mg one dose at night, 5 to 15 days; seven patients
Protocol: (§1) Clinical trials were performed on three groups of patients, partly hospitalized patients and partly outpatients. It was determined that the effect observed in the experimental pharmacological studies were useful in the treatment of humans as well.
Seven patients complaining of insomnia were treated for a period of time varying from 5 to 15 days. The daily dose was 400-600 mg given as one dose at night.

[9] = Clinical trial, 2nd group: strain and anxiety; type: in vivo, human; settings: 500 to 1500 mg/day; twelve patients
Protocol: as §1
The dose levels used with these patients varied between 500 and 1500 mg/day, divided into two or three doses which were given during the day.

[10] = Clinical trial, 3rd group: essential epilepsy; type: in vivo, human
Protocol: as §1
Four patients suffering from essential epilepsy were treated for periods of time varying between 10 and 30 days with daily doses ranging from 0.500 to 1.500 g. […] In the fourth patient it was possible to lower the anti-epileptic massive therapy they had been following for some time, and on which they were maintained throughout this study, by more than 50%.

[11] = Protective effect against electroshock (MES)
[12] = Mortality from d-amphetamine in mice kept in group; settings: AP-28 250 mg/kg i.p.
[13] = Sedation of laboratory animals; type: in vivo; settings: about 500 mg/kg
[14] = 0.500 to 1.500 g daily, 10 to 30 days

CCCCOC(=O)NC1CCOC1=O (stereo not drawn) [AP-28, α-n-butoxycarbonyl-amino-γ-butyrolactone]
hypnotic effect of sodium pentobarbital [1]: markedly enhanced | mice staying on the bar for 3 minutes ([2]; 250 mg/kg i.p.): two out of the five treated mice | mice staying on the bar for 3 minutes ([2]; 500 mg/kg i.p., five mice): none | prevention of d-amphetamine stimulation of spontaneous mobility [3]: did not prevent d-amphetamine from stimulating spontaneous mobility | Time of death in minutes ([4]; 500 mg/kg i.p.): No deaths | Time of death in minutes ([4]; 500 mg/kg os): No deaths | protective effect against strychnine ([4]; mouse, in vivo): A marked protective effect | protection against the lethal effect of strychnine sulfate ([4]; single oral 500 mg/kg, strychnine sulfate 1.2 mg/kg): protected all of the animals | electromyographic tracing [5]: caused the electromyographic tracing to become flat | sedation and electromyographic alterations [6]: sedation occurred without the electromyographic alterations which usually indicate sleep | number of cases of REM sleep [7]: reduced the number of cases of REM sleep | period of sleep characterized by slow waves [7]: comparatively longer | total sleeping time [7]: did not modify the total sleeping time | sleep in insomnia patients [8]: Patients slept quietly and for a long period of time; also recorded: induced quiet, long-lasting sleep in insomniac patients | attenuation of anxiety symptoms and psychic stress [9]: In all patients, except one, symptoms were attenuated and a reduction of their psychic stress was observed; also recorded: An evident and lasting anxiety-relieving effect was observed | behavior and temper [10, 14]: improvement in their behavior and temper could be observed | number of fits, third patient [10, 14]: a marked reduction of the number of fits | fits during the observation period ([10]; 0.500 to 1.500 g daily, 10 to 30 days, four patients): two patients had no fits | number of seizures ([10]; epileptics): prevented or reduced the number of seizures | effectiveness against electroshock relative to phenobarbital sodium ([11]; AP-28 250 mg/kg i.p.): as effective as phenobarbital sodium | protective effect against electroshock ([11]; mouse, in vivo): A marked protective effect | mortality from d-amphetamine [12]: a marked reduction of mortality was obtained | animals that died from d-amphetamine ([12]; 10 minutes before d-amphetamine sulfate 10 mg/kg i.p.): five of the eight animals

CC(C)COC(=O)NC1CCOC1=O (stereo not drawn) [Example 2, α-isobutoxycarbonyl-amino-γ-butyrolactone]
sedation [13]: The animals are sedated

CC(C)OC(=O)NC1CCOC1=O (stereo not drawn) [Example 3, α-isopropoxycarbonyl-amino-γ-butyrolactone]
sedation [13]: The animals are sedated

CCCCCOC(=O)NC1CCOC1=O (stereo not drawn) [Example 4, α-n-pentylcarbonyl-amino-γ-butyrolactone]
sedation [13]: The animals are sedated
